Key:
[1] = tested on: Halotydeus destructor resistant population (synthetic pyrethroid resistance); assay: Coated plastic vial bioassay, redlegged earth mite, resistant population; assay type: in vivo; conditions: 24 hours exposure
Method: (§1) The test compositions included 0.1% Tween 20 non-ionic surfactant to aid the spread of insecticides when coating plastic vials. This concentration of Tween 20 has been previously shown to have no toxic effect on H. destructor. For each insecticide concentration tested, 3, 10, 30, 100, 300, 1000, 3000 and 10000 mg a.i./L (ppm), approximately 10 mL of solution was poured into a 15 mL plastic vial and swirled to ensure a complete coating, with excess liquid removed. Eight vials were coated per concentration and were left to dry overnight. Control vials were treated in the same way but with water used in place of test composition.
(§2) Eight susceptible H. destructor mites were then placed into each vial along with a leaf of common vetch (Vicia sativa). The leaf was added to provide food and increase humidity. Vials were then sealed with a lid and placed at 18° C. After 4, 6, 8 and 24 hours of exposure, the mites were scored as alive (moving freely), incapacitated (inhibited movement), or dead (no movement over a 5 second period).
The resistant population of H. destructor was collected from a lucerne paddock in the Upper South-East district of South Australia, where resistance to synthetic pyrethroids was confirmed in late 2016.
The data produced in the assays were assessed for concentrations that caused 50, 90 and 99% mortality (lethal concentration, LC), together with 95% confidence intervals (CIs) and were estimated from observations of mortality after 24 hours exposure using a binomial logistic regression (Robertson & Preisler, 1992, Pesticide Bioassays with Arthropods. CRC: Boca Raton; Venables & Ripley, 2002, Modern Applied Statistics with S. Springer: New York). Population differences were tested by comparing the change in model deviance with and without the population factor (different regression intercepts for each population). Differences in regression slopes between populations were tested by comparing the change in model deviance with and without the population×dose interaction term. […]

[2] = tested on: Halotydeus destructor susceptible population; assay: Coated plastic vial bioassay, redlegged earth mite, susceptible population; assay type: in vivo; conditions: 24 hours exposure
Method: The efficacy of flavesone against H. destructor was assessed using the glass vial technique developed by Hoffmann et al. (1997, Exp. Appl. Acarol., 21:151-162), adapted for plastic vials. A susceptible population of mites was collected from capeweed (Arctotheca calendula) at a Victorian site (37° 40′33″S, 145° 07′ 45″E) that had no known history of insecticide application. Following collection, samples were stored in small plastic containers with leaf material and paper towel to absorb excess moisture. Containers were kept at 4° C. prior to testing.
as §1
as §2, with “period). […]” for “period).”
The data produced in the assays were assessed for concentrations that caused 50, 90 and 99% mortality (lethal concentration, LC), together with 95% confidence intervals (CIs) and were estimated from observations of mortality after 24 hours exposure using a binomial logistic regression (Robertson & Preisler, 1992, Pesticide Bioassays with Arthropods. CRC: Boca Raton; Venables & Ripley, 2002, Modern Applied Statistics with S. Springer: New York). […]

[3] = tested on: M. persicae (green peach aphid) insecticide-susceptible population; assay: Leaf dip bioassay, green peach aphid, susceptible population; assay type: in vivo, Myzus persicae; conditions: 96 hours exposure
Method: (§3) Each colony was maintained separately on bok choi plants ([…]) within an exclusion cage in a constant temperature room at 24° C. with a photoperiod of 16:8 LD.
(§4) Laboratory bioassays were used to determine the efficacy of flavesone against M. persicae following the leaf dip method described in Moores et al. (1994, Pesticide Biochemistry and Physiology, 49, 114-120). A pilot study was first conducted which confirmed that the leaf dip method was appropriate to elicit a clear dose response for Flavocide 500EW against M. persicae, and to determine the appropriate rate range and timing of mortality assessments (scored at 24, 48, 72 & 96 hours) (data not shown).
(§5) Bioassays were then conducted to assess the efficacy of flavesone against a susceptible and resistant population of M. persicae, and to calculate LC values. The efficacy of a conventional insecticide, pirimicarb, was tested for comparison. […]
(§6) After aphid introduction, each petri dish was inverted onto a lid containing a 25 mm diameter filter paper to control humidity. […] At 48 & 96 hours, aphids were scored as alive (vibrant and moving freely), dead (not moving over a 5 second period), or incapacitated (inhibited movement).
(§7) Dose-response curves were generated by plotting percentage mortality against log concentration. Mortality data was analysed using a logistic regression model with random effects. […]

[4] = tested on: M. persicae (green peach aphid) population resistant to carbamates and synthetic pyrethroids; assay: Leaf dip bioassay, green peach aphid, resistant population; assay type: in vivo, Myzus persicae; conditions: 96 hours exposure
Method: as §3, §4, §5, §6, §7

SMILES | Regression slope coeffeicient (±SE) [1] | Regression slope coeffeicient (±SE) [2] | Regression slope coefficients (±SE) [3] | Regression slope coefficients (±SE) [4]
Cc1c(COC(=O)[C@@H]2[C@H](/C=C(\Cl)C(F)(F)F)C2(C)C)cccc1-c1ccccc1 (racemic) [Bifenthrin, bifenthrin] | 0.27 (0.05) | 0.54 (0.05) | – | –
CCOP(=S)(OCC)Oc1nc(Cl)c(Cl)cc1Cl [Chlorpyrifos, chlorpyrifos, reference compound] | 1.27 (0.18) | 1.68 (0.26) | – | –
CC(C)C(=O)C1C(=O)C(C)(C)C(=O)C(C)(C)C1=O [Flavesone, 1-isobutyroyl-3,3,5,5-tetramethylcyclohexane-2,4,6-trione] | 1.78 (0.17) | 1.75 (0.17) | 2.77 | 2.38
Cc1nc(N(C)C)nc(OC(=O)N(C)C)c1C [Pirimicarb, pirimicarb, reference compound] | – | – | 1.52 | −0.13
